SMILES strings stand for the structures. The list shows a part of the results. Entries with a potency or affinity are not part of this list.

In the test the test system is Pseudomonas aeruginosa. The following applies: Concentration 20 uM; ASSAY_TEST Inhibition of Bacterial Growth; detection method Absorption (OD600); MEDIA CAMHB; plate type 384well; NBS; CORNING #3640; time 18 hr.
Regarding `CC(=O)OC1C=CCC2C(=O)c3cccc(O)c3C(O)C12` (stereo not given), the Inhibition came to 7.59%. On to `CC1(C)CC(=O)C(CC(=O)c2ccccc2)=C(NNC(=N)N)C1`, for which the Inhibition is 12.13%. In the case of `Cn1cnc([N+](=O)[O-])c1N=C(N)N`, the Inhibition is on record as 27.49%. Consider `COc1cc(-c2ccc(Nc3ccccc3C(=O)O)c(OC)c2)ccc1Nc1ccccc1C(=O)O`, for which the Inhibition is on record as 8.14%.

With `Cn1c(=O)c2nc(CNc3ccc(C(=O)O)cc3)[nH]c2n(C)c1=O`, the Inhibition is -15.43%.

As for `O=C(Nc1ccc(Nc2ccccc2)cc1)Nc1ccccc1Cl`, the Inhibition was 29.15%. As for `O=C(/C=C/C(=O)N1CCc2ccccc2C1)N1CCc2ccccc2C1`, the Inhibition is -1.48%. Consider `COC(=O)CC1(C(=O)OC)Nc2cc(Cl)c(Cl)cc2S(=O)(=O)N1O` (stereo not given), for which the Inhibition came to 20.28%. As to `OCCCCc1nccc2c1[nH]c1ccccc12`, the Inhibition was -6.37%. The value for `CCCc1nc(NC(=O)c2ccccc2)nc(NC(=O)c2ccccc2)n1` was 3%.

As to `COc1cccc2c1C(CO)N1C(C#N)C3CC(C(=O)O)C(C1C2)N3C` (stereo not given), the Inhibition is recorded as -11.34%. For `CC1=CC(=O)C(/C(C)=N/c2ccccc2Cl)C(=O)O1` (stereo not given), the Inhibition is on record as -12.96%. Next, `O=C(c1cccnc1)c1cc(-c2ccccn2)c(=O)n2ccccc12`: 30.02%; `Sc1cnnc2ccccc12`: -16.88%. Turning to `O=C(Nc1ccccc1-c1ccccc1)C(=O)Nc1ccccc1-c1ccccc1`, the Inhibition is given as -5.08%.

Regarding `c1ccc(-c2nnc(-c3ccccc3)nn2)cc1`, the Inhibition was found to be 19.83%. Turning to `CCCCSc1[nH]cnc2nncc1-2`, the Inhibition is recorded as 20.63%. The value for `CCOC(=O)c1cc(-c2cccnc2)nc2c(Cl)cc(Cl)cc12` was 11.86%; that for `CC1=CC(C)(C)N=C(S)N1c1cccc2cc(S(=O)(=O)O)ccc12` was -12.89%; that for `CSC(=NS(=O)(=O)c1ccccc1)NNC(=O)c1c(-c2c(Cl)cccc2Cl)noc1C` was -8.64%. Consider `O=C(O)/C(Cc1c[nH]nn1)=N\O`, for which the Inhibition amounted to 6.67%. Next, `COC(=NC(C)C)NC(C)C`: 21.27%; `COc1ccc2c(c1)CCN1C2CCN2C(=O)CCC21` (stereo not given): -5.59%; `CC1CC(C)(C)NC2(CCCC2)N1` (stereo not given): 23.49%.

Regarding `CC1CO/C(=C2\C(=O)OCC2C)C1` (stereo not given), the Inhibition is recorded as 14.61%. Next, `COc1cccc(/C=C/c2nccc3ccccc23)c1OC`: 10.79%; `NC(=O)c1cc2c3ccccc3ccn2c1-c1ccccc1`: 5.42%; `COc1ccc2c(c1)C(=O)C1NC(=O)NC(=O)C1(Br)N2` (stereo not given): 17.46%. Next, `CCCCSc1cc(O)nc(N)n1`: 31.81%.

For `CCOC(=O)C(=Cc1ccc(Br)cc1)C(=O)OCC`, the Inhibition came to 23.58%. The value for `Nc1nc(SCc2ccccc2)sc1C(=O)N1CCCCC1` was 22.11%; that for `CC(=O)O[C@H]1CC[C@@]2(C)[C@@H](CC[C@@H]3[C@@H]2CC(=O)[C@@]2(C)[C@H]3C[C@@H]3CC(C)=CC(=O)[C@@H]32)C1` was 22.1%; that for `OCC1(CO)CC2(C1)CC(CO)(CO)C2` was 12.93%. Next, `CC1(C)CCSC(/C=C/c2ccccc2)=N1`: 0.94%; `O=C(Nc1ccc(F)cc1)OCCOc1ccc(Br)cc1`: 14.37%. Next, `COc1cc(NC(C)=O)c2ncccc2c1Br`: 19.59%; `CCOc1ccc(NC(=O)Nc2cc(C(C)C)ccc2C)cc1`: -9.19%; `N#Cc1nnn2c1nc(N)c1c(Cl)cccc12`: 1.92%. Take `C(=N\n1cnnc1)/c1ccc2c(c1)CCC2`: the Inhibition was 1.93%. In the case of `Cc1c2cnccc2c(C)c2c1c1ccccc1n2CCOC(=O)c1ccccc1`, the Inhibition is on record as 20.88%. For `Cc1nc(C(N)=O)nc2ccccc12`, the Inhibition was found to be 14.29%. The value for `N#C/N=C/N1CC=C(c2ccc(Cl)cc2)CC1` was 2%; that for `CCCCCCCC1(C)NC(=O)NC1=O` (stereo not given) was 8.41%.

Take `CC(C)c1nc2c(=O)n(C)c(=O)n(C)c2[nH]1`: the Inhibition came to 16.66%. Turning to `O=C1c2cccc(Oc3ccccc3)c2C(=O)c2cccc(Oc3ccccc3)c21`, the Inhibition is recorded as 13.08%.

Consider `CCOC(=O)Cc1csc2nc(-c3ccccc3)nn12`, for which the Inhibition is reported as 0.17%. Consider `N=C(N)NS(=O)(=O)c1ccc(/N=C2/C(=O)Nc3ccccc32)cc1`, for which the Inhibition stood at 27.83%. Take `C#CCSc1nc(-c2ccco2)n[nH]1`: the Inhibition is listed as -2.43%. For the molecule `CCOc1ccc(NC(=O)c2cc3ccccc3cc2O)cc1`, the Inhibition is listed as 0.55%. The value for `CC1=Nc2ccccc2/C1=C\c1c(C)[nH]c2ccccc12` was 4.61%.

Regarding `CN1CCC(n2[nH]c(-c3ccccc3)c(Cc3ccccc3)c2=O)CC1` [BENZPIPERYLON], the Inhibition was 18.57%.

`O=C1NC(=S)S/C1=C\c1ccccc1C(=O)O`: the Inhibition came to 7.36%. For the molecule `Oc1nc(S)ncc1Oc1ccc(Cl)cc1Cl`, the Inhibition turned out to be 5.78%. For `O=C(O)c1ccccc1-c1ccccc1C(=O)Nc1ccc2c(c1)nc(O)c1ccccc12`, the Inhibition came to 7.38%. Next, `CN1CCN(C2=NCCO2)CC1`: 13.46%. Next, `CC1(C)N=C(N)N=C(NCCCOc2ccc([N+](=O)[O-])cc2)N1.CCS(=O)(=O)O`: 21.41%; `COC(=O)c1ccc(Cn2cnc3c(Cl)ncnc32)cc1`: -11.44%. Regarding `c1ccc2c(c1)Nc1ccncc1S2`, the Inhibition is -5.87%. The value for `Cc1cc2c(c(C#N)c1C)NC=NC2C` (stereo not given) was 22.27%; that for `ClC(Cl)(Cl)C1=Nc2c(nnn2Cc2ccccc2)CN1` was 29.56%; that for `Cc1cc2c3ccccc3ncn2n1` was 6.43%. Next, `CCOC(=O)c1c(C)nc(C)c(C(=O)OCC)c1-c1cccnc1`: -6.77%. The value for `CS(=O)(=O)O.Cc1cc2c(cc1[N+](=O)[O-])NC(CNC(C)C)CC2` (stereo not given) was 22.01%; that for `C=CCNC(=O)C1COc2ccccc2O1` (stereo not given) was 2.04%; that for `COc1ccccc1/C=C(\C#N)C(=O)O` was 9.79%.

On to `O=C1CSCc2nc3ccccc3n21`, for which the Inhibition was 23.81%. The value for `Cc1ccc(-c2cc(C(=O)O)c3ccccc3n2)c(C)c1` was -3.62%; that for `Clc1nnc(NC2CCCCC2)c(Cl)c1Cl` was 24.72%; that for `COC(=O)C(=Cc1ccccc1[N+](=O)[O-])C(=O)OC` was 11.44%. As to `Cc1nc2nc(C(F)(F)F)[nH]c2nc1C`, the Inhibition is -5.5%.

With `O=C1C2CC3N1CCC31c3ccccc3-n3c1c2ccc3=O` (stereo not given), the Inhibition is 7.29%. Next, `COC(=O)Cc1[nH]c(S)nc1C(=O)OC`: -22.44%; `Cn1ncc2c(Nc3ccc([N+](=O)[O-])cc3)nc(Cl)nc21`: -8%. Next, `COc1ccc(OC)c(NC(=O)c2cc3oc4ccccc4c3cc2O)c1`: 23.58%. Consider `CC(C)(C)c1ccc(C(=O)Nc2ccc(S(N)(=O)=O)cc2)cc1`, for which the Inhibition came out at 20.1%. As for `Nc1nc2cc([N+](=O)[O-])ccc2[nH]1`, the Inhibition was 5.12%.

For `O=C(O)Cc1sc(O)nc1O`, the Inhibition stood at 7.74%. Next, `COC(=O)c1cc2c(n1S(=O)(=O)c1ccc(C)cc1)C(=O)C(=O)c1[nH]cc(C(=O)OCc3ccccc3)c1-2`: 11.56%; `O=C1CCCc2cc3c(cc21)CC1(C3)Cc2cc3c(cc2C1)C(=O)CCC3`: 16.02%; `O=c1cc(-c2ccccc2)oc2ccc(O)cc12` [6-HYDROXYFLAVONE]: -16.45%. For `CN(C)c1ccc(/C=N/NC(=O)c2cnc3ccccc3c2)cc1`, the Inhibition turned out to be 22.63%.

`CCOC(=O)C(C)c1c(C(=O)c2ccc(C)nc2)c2ccccc2n1C` (stereo not given): the Inhibition amounted to 22.42%. Next, `CC(=O)Nc1nc(C)c(CCC2OCCO2)c(O)n1`: -6.6%; `S=C(SCc1cc(Cl)cc2c1OCOC2)N1CCSCC1`: 16.56%.

In the case of `C=CCN1CCN(c2ccncc2S(=O)(=O)N2CCN(C)CC2)CC1`, the Inhibition was 24.3%. The value for `COc1cccc(OCC(O)CN2CCN(c3ccc(Cl)cc3)CC2)c1` (stereo not given) was 3.43%; that for `CC(=O)Oc1ccc(OC(C)=O)c2c1CC(C)=C(C)C2` was 14.2%.

Regarding `CCOc1nsc(OCC)n1`, the Inhibition is on record as 17.95%. Next, `CCOC(=O)c1cc(-c2ccccc2)nc2ccc(C)cc12` [NEOCINCHOPHEN]: -16.13%; `Cn1ncc2c(O)nc(N)nc21`: 19.07%. Next, `CCCn1cnc2c(Sc3c([N+](=O)[O-])ncn3C)nc(N)nc21`: 8.99%; `O=C1CSC(c2cccs2)N1c1nncs1` (stereo not given): 23.66%; `O=[N+]([O-])c1cc2cccnc2c2ncccc12`: 15.65%. The value for `CNC1(C(N)=O)CCNCC1` was 26.22%; that for `O=[N+]([O-])c1ccc(Cn2cnc3c(O)ncnc32)cc1` was 1.92%; that for `NS(=O)(=O)c1cc2c(cc1Cl)NC(Cc1ccccc1)NS2(=O)=O` (stereo not given) [BENZYLHYDROCHLOROTHIAZIDE] was 23.15%. As to `Cc1ccc(N2CCN(CC(O)COc3cccc(C)c3)CC2)cc1` (stereo not given), the Inhibition is given as 17.93%. With `O=C(c1ccccc1)C1C(c2ccccc2)C1[N+](=O)[O-]` (stereo not given), the Inhibition is reported as -7.45%. With `NC(=O)c1cc(C(N)=O)nc(Cl)n1`, the Inhibition worked out at 24.63%.

Consider `Cn1nc(SCc2ccccc2)c(=O)n(C(c2ccccc2)c2ccccc2)c1=O`, for which the Inhibition was found to be 13.4%. The value for `NC(=O)c1ccc(/N=N/c2c(O)c3ccccc3[nH]c2=O)cc1` was 16.43%. Consider `O=NC1=C(c2cccc([N+](=O)[O-])c2)Nc2ccccc2S1`, for which the Inhibition is listed as 5.05%.

Take `Nc1nc(O)c2nn(-c3ccccc3)nc2n1`: the Inhibition is given as 3.9%. Regarding `CC(C)(C)c1ccc(OC(=O)c2ccccc2)cc1`, the Inhibition was determined as 5.69%.

For `CCOC(=O)Nc1ccc2nc(N3CCCCCC3)sc2c1`, the Inhibition is 25.9%. For `O=C(NC(=S)Nc1cccc2c(O)cccc12)c1cccc(Br)c1`, the Inhibition was 11.01%. Turning to `CCOc1cc2c(Cl)ncnc2c(OCC)c1OCC`, the Inhibition worked out at 3.9%. The value for `CCC(C)Nc1nc2c(c(=O)n(C)c(=O)n2C)n1C` (stereo not given) was 3.33%; that for `CC(O)c1nc2c(c(=O)n(C)c(=O)n2C)n1C` (stereo not given) was 7.16%; that for `NC(=O)c1ccccc1OCC(=O)Nc1ccc(Cl)c(Cl)c1` was 15.81%.

These data come from ChEMBL document CHEMBL4296182, “CO-ADD screening of NIH NCI Diversity Set V”.
